These are yes or no findings as the source states them, for the method shown. Some binding calls cover weakened binding; strength is not graded here.
Biological target: MBP-hMUC1-C protein (human) (UniProt P15941)
Assay: competitive ELISA on coated MBP-hMUC1-C, competitor biotin-labelled G3 at 50 nM

Protein sequences, listed by entry. Tags and fused reporters are not part of them. Lines headed by an entry give the natural chain unless they say otherwise; changes in a name come on top.
UniProt P15941: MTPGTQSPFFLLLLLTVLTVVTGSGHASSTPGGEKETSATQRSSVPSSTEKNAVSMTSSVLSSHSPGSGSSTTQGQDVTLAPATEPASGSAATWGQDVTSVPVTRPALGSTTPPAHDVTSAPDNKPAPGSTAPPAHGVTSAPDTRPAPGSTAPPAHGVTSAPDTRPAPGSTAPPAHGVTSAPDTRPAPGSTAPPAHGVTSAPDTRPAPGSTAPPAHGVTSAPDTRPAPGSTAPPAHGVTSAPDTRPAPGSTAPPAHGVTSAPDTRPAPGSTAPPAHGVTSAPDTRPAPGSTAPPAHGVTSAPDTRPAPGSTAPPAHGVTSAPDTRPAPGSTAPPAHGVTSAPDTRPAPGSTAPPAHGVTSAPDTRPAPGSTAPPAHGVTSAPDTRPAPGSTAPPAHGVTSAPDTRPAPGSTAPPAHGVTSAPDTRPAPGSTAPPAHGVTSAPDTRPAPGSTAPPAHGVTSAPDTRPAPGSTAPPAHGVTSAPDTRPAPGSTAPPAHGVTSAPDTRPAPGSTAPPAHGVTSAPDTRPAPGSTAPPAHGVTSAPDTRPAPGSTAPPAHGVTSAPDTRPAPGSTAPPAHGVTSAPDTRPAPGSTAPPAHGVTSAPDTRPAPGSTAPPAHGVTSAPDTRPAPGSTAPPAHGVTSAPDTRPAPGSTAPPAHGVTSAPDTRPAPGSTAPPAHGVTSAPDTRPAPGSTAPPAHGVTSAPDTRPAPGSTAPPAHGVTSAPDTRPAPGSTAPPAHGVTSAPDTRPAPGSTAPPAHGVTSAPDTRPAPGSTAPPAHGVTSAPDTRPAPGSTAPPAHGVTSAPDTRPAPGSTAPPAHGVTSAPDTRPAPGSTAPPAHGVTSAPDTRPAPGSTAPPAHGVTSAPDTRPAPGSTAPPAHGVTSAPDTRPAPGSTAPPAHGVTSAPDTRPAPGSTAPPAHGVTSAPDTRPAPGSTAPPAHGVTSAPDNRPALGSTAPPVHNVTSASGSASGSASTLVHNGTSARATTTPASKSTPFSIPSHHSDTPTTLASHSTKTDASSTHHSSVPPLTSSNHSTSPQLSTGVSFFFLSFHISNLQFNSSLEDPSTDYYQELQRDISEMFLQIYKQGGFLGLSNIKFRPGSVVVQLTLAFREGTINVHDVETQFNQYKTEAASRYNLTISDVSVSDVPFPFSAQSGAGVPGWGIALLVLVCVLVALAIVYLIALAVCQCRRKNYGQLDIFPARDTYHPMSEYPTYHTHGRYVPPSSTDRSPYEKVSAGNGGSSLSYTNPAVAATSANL

B1: anti-hMUC1 monoclonal antibody purified from hybridoma hMUC1-1H7 (KCLRF-BP-00395) (antibody, V domains shown)
VH: EVQLQQSGAELAKPGASVKMSCKVSGYTFTSYWMHWVKQRPGQGLEWIGYINPGTGYIEYNQKFKDKATLTADKSSSTAYMQLSSLTSEDSAVYYCASSTAPFDYWGQGTTLTVSS
VL: DIVITQSPSSMYASLGERVTITCKASQDIKSYLSWYQQKPWKSPKTLIYYATRLADGVPSRFSGSGSGQDYSLTISSLESDDTATYYCLQYDESPYTFGGGTKLEIKR
notes: also called anti-hMUC1 antibody; anti-hMUC1-C mouse antibody (1H7)
In the case of B1, the binding is reported as “binds”.

From US20210115153A1 (PEPTRON, published 2021)
